According to patent US4290943 (dated 1981):

Test: general procedure: peptide synthesis; insoluble support material, small globules of 0.1 to 0.2 mm diameter; dicyclohexylcarbodiimide; dicyclohexylcarbodiimide/1-hydroxybenzotriazole (HOBt)
Conditions: whole synthesis

Substance | isolated yield (with respect to the amino acids initially applied to the support material) | isolated yield
Ddz-Ile-Lys[Z]-Cys[Acm]-Asn-Cys[StBu]-Lys[Z]-Arg[Tos] | 34% | –
Ddz-Pro-His-Ile-Cys[Acm] | – | 20%
